In the supplement of paper PMC3334620:
Over roughly 33,000 sequences, “E-score (-0.5 to 0.5)” has its median near -0.0034; the highest 2% begin near 0.25. This is one part of the list.

target: T1, Yap3 (UniProt P38749); assay: PBM E-score (8-mer binding enrichment) (E-score (-0.5 to 0.5)); higher = stronger / more preferred TF binding; details: protein concentration: 100 nM; construct: GST-full length
T1 sequence: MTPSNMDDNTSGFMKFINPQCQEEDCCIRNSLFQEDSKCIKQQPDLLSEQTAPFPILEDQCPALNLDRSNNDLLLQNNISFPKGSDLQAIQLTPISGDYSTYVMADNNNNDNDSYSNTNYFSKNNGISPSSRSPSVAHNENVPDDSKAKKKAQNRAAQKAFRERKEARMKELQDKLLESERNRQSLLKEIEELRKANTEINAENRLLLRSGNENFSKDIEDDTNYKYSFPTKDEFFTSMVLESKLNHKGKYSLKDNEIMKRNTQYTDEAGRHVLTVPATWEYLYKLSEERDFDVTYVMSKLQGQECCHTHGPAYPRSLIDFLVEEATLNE
Outline: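 Universal all-10-mer Agilent arrays, fresh or stripped once, were converted to double-stranded form by primer extension. GST-tagged yeast transcription factors from PURExpress in vitro transcription/translation, full-length or DNA-binding domain only, were applied at about 100-200 nM and detected with fluorescent anti-GST. After masliner normalisation, the Universal PBM Analysis Suite scored each ungapped eight-base word together with its reverse complement by E-score.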

Row | Sequence | PBM E-score
1 | CCCCATTA | -0.0898
2 | ATTTACAC | -0.0267
3 | CTAGGAAG | -0.0762
4 | TCCTGTCA | -0.0145
5 | TCAGTAGA | 0.0364
6 | AAGTACAT | 0.162
7 | GGAATGAA | 0.243
8 | ACTGCCCC | -0.151
9 | AAGTTCGC | 0.131
10 | GTCTATTA | -0.0262
11 | CTTTAGAC | 5e-05
12 | AATTCCCC | 0.0602
13 | CGTGGTTC | -0.0435
14 | CACCCGTG | -0.263
15 | CAATCTAC | -0.134
16 | GGTGCGAC | -0.156
17 | CCGGCATA | 0.0113
18 | CGTCTAAA | -0.0058
19 | GCTCGGCA | 0.00254
20 | CTGAGTAC | -0.175
21 | GCATTATA | 0.109
22 | CTGCAGAC | -0.0265
23 | ATAAATAG | 0.195
24 | CAGAATAA | 0.196
25 | AGTTCAAA | 0.0949

Row | Sequence | PBM E-score
26 | AACCCTAT | 0.081
27 | AGGCCTAG | -0.105
28 | CCAGATAC | -0.0923
29 | GCTCAATA | 0.0876
30 | GGATATCA | 0.0118
31 | GCGCACGA | 0.084
32 | GTATGGAC | -0.11
33 | GAAAATCC | 0.0305
34 | ACGAGATA | 0.0592
35 | AAGACCCT | -0.114
36 | AAGGACCC | -0.2
37 | AACAATGC | 0.136
38 | CACTGCGG | 0.0671
39 | CAGAGGCC | -0.278
40 | TCTCCACA | 0.00014
41 | CCTCAGCA | -0.186
42 | GAGAGGAC | -0.0706
43 | AGGCGATG | -0.104
44 | CGAACTCG | 0.0851
45 | TTATAAAA | 0.256
46 | GAACTGTC | -0.049
47 | ACTCGCAG | 0.0964
48 | CCGTAATC | 0.157
49 | CACTTGGC | -0.136
50 | CCTATTCA | -0.139

Row | Sequence | PBM E-score
51 | TCTACTCA | 0.137
52 | AACTCCCC | -0.228
53 | CCTTAGAG | -0.268
54 | CCGTCGTA | 0.0109
55 | AGCCTCGG | -0.244
56 | AAAGGGCT | -0.254
57 | ACGCGCGT | 0.178
58 | TATTATAA | 0.281
59 | ACGTACAC | 0.138
60 | AGATGTCA | 0.063
61 | GGTGATCA | -0.0356
62 | CAGGCTCA | -0.0744
63 | GGTTATGA | 0.0918
64 | AAGCTCCC | -0.231
65 | CGTACACC | -0.0419
66 | GCCCCGAC | -0.176
67 | TACTGAAA | 0.273
68 | ACGGAGTA | -0.0807
69 | AGACATTG | 0.0192
70 | AGCGCCGG | -0.181
71 | AACCAGTT | 0.2
72 | GGCTAAGA | -0.109
73 | ATTCCCTA | 0.0936
74 | CCTTTTCA | 0.0263
75 | AAGCGCCA | -0.253

Row | Sequence | PBM E-score
76 | CTGGCGTC | -0.103
77 | CACCCGAC | -0.14
78 | ACTTCAAT | 0.18
79 | ATTGTTGC | 0.0249
80 | AGTCCAAA | -0.0855
81 | TACACCAA | 0.0771
82 | AAGAGCCC | -0.211
83 | CCACAGGA | -0.0415
84 | CCAAAACG | 0.0165
85 | GCAGTTGA | -0.0429
86 | CCCCAGCA | -0.188
87 | AACTGCCC | -0.0934
88 | TACCAAGA | 0.0977
89 | ATGTCGGC | -0.143
90 | ACAGTTTC | 0.174
91 | AGGCCACT | -0.143
92 | TCGCAGAA | -0.174
93 | AATAGTCT | 0.0416
94 | CTCTTCTA | -0.0308
95 | ACGTGCGG | 0.144
96 | ATATCCTA | 0.133
97 | GAAGGTAA | 0.187
98 | CTCAGATC | -0.0337
99 | GAATCTCA | -0.147
100 | CCCCACGG | -0.335

Row | Sequence | PBM E-score
101 | GGATTTAC | 0.13
102 | AGCTCGGC | -0.0442
103 | CACATTAC | 0.276
104 | AAAATGGG | -0.0559
105 | AGCCACTA | -0.0714
106 | CGGTCATC | 0.0664
107 | CCACGACC | -0.19
108 | GCTACATA | 0.0203
109 | AGCTACTC | -0.0266
110 | GAGAAGGA | -0.117
111 | CACTATAG | 0.0438
112 | GGCGTCGA | -0.00296
113 | ATCGTCCA | -0.158
114 | ATACGCAC | 0.0362
115 | AGCCTGAT | -0.0632
116 | AATCATTG | 0.142
117 | CTCAGACA | 0.087
118 | TGTGGGAA | 0.0673
119 | CCGACCTC | -0.17
120 | ACGCCGTC | 0.0449
121 | AAGAACTG | -0.0134
122 | ACTAATGC | 0.216
123 | CAACTCTA | -0.0767
124 | CGGAGATC | -0.142
125 | CGCTACAA | 0.0266

Row | Sequence | PBM E-score
126 | TATGATGA | 0.169
127 | GTCAATAA | 0.0709
128 | ACCTTATG | 0.0534
129 | AAGTAATG | 0.191
130 | AAGCGATA | 0.0345
131 | ATGTGGCA | -0.0638
132 | AGTTCGCC | 0.0288
133 | AATGCTAG | -0.0127
134 | CGGACGGC | -0.178
135 | CCGGGCCA | -0.285
136 | ATAAATAC | 0.325
137 | GTAAAGCA | 0.145
138 | CAGTCGGA | -0.00775
139 | ATAGATGC | -0.0393
140 | AGATCTAC | 0.0426
141 | GCGGGCGA | -0.164
142 | AAGTTTTG | 0.0825
143 | CGAAACGA | 0.108
144 | GACCCGTA | -0.171
145 | CTACTAAA | 0.0259
146 | CTTGGTTA | 0.118
147 | CTGAGTGC | -0.0152
148 | ACTCGGCC | -0.0473
149 | ATGAAAGA | 0.233
150 | CATGCCAA | 0.118

A second format for some results above.
Row	Sequence	PBM E-score
110	GAGAAGGA	-0.117
111	CACTATAG	0.0438
112	GGCGTCGA	-0.00296
113	ATCGTCCA	-0.158
114	ATACGCAC	0.0362
115	AGCCTGAT	-0.0632
116	AATCATTG	0.142
117	CTCAGACA	0.087
118	TGTGGGAA	0.0673
119	CCGACCTC	-0.17
120	ACGCCGTC	0.0449
121	AAGAACTG	-0.0134
122	ACTAATGC	0.216
123	CAACTCTA	-0.0767
124	CGGAGATC	-0.142
125	CGCTACAA	0.0266
126	TATGATGA	0.169
127	GTCAATAA	0.0709
128	ACCTTATG	0.0534
129	AAGTAATG	0.191
130	AAGCGATA	0.0345
131	ATGTGGCA	-0.0638
132	AGTTCGCC	0.0288
133	AATGCTAG	-0.0127
134	CGGACGGC	-0.178
135	CCGGGCCA	-0.285
136	ATAAATAC	0.325
137	GTAAAGCA	0.145
138	CAGTCGGA	-0.00775
139	ATAGATGC	-0.0393
140	AGATCTAC	0.0426
141	GCGGGCGA	-0.164
142	AAGTTTTG	0.0825
143	CGAAACGA	0.108
144	GACCCGTA	-0.171
145	CTACTAAA	0.0259
146	CTTGGTTA	0.118
147	CTGAGTGC	-0.0152

Following part:

Row | Sequence | PBM E-score
151 | TTACTCAA | 0.069
152 | AACTCCCG | -0.0429
153 | ATGCATAC | 0.153
154 | CTTCCCCC | -0.29
155 | CTAAAATA | 0.148
156 | AAAGCGCA | -0.049
157 | CGACTCCG | -0.24
158 | TGGGCAAA | 0.0909
159 | ACGCGTTC | 0.064
160 | AAATAATC | 0.0637
161 | CCCTCCCG | -0.203
162 | CCACGAAA | -0.0359
163 | GAGCCATC | -0.128
164 | CTGCGCCC | -0.272
165 | ACTTGATA | 0.169
166 | CCTTTACC | -0.182
167 | CGATTGCG | -0.0346
168 | ACAAAACA | 0.202
169 | CCGGACGC | 0.026
170 | AGTGGTGA | -0.0796
171 | AGCCATAG | -0.161
172 | AGTTGCAG | -0.13

A portion taken from the entries so far, as a working copy:
Row | Sequence | PBM E-score
162 | CCACGAAA | -0.0359
163 | GAGCCATC | -0.128
164 | CTGCGCCC | -0.272
165 | ACTTGATA | 0.169
